One substance from patent publication US20200377892A1 can be followed below.

Experiment [1] concerns the target HBV capsid protein (HBc) (hepatitis B virus) (UniProt P0C6G7). In words: proximity ligation assay in HBV-infected HepG2-NTCP cells.
Experiment [2] has the same target. In words: co-immunoprecipitation with anti-HBc antibody, Western blot, HepaRG-TR-HBc cells.

These are yes or no findings as the source states them, for the method shown. In cells and extracts the contact can be indirect. Some entries that bind do so weakly or less than the wild type.

Regarding “histone chaperone HIRA (from UniProt P54198 1-1017)”, the binding result in experiment [1] and in experiment [2] was “binds” in each case.
